This is an account of results in PubChem BioAssay AID493014 (National Center for Advancing Translational Sciences (NCATS), 2011).

This assay in a line: qHTS Assay to Find Inhibitors of Chronic Active B-Cell Receptor Signaling. The note with it: ABC-DLBCL IkBa-CBG/CBR reporter, luminescence ratio (green luciferase fused to IkBa over red control in TMD8 lymphoma cells), 4 h. An excerpt:
NIH Molecular Libraries Probe Production Network [MLPCN] NIH Chemical Genomics Center [NCGC] MLPCN Grant: 1 R03 DA031086-01A1 PI Name: Dr. R. Eric Davis NCGC Assay Overview: Diffuse large B-cell lymphoma (DLBCL) is the most common category of non-Hodgkin lymphoma, with ~20,000 new cases per year in the United States. DLBCL should be regarded as a collection of different neoplasms. Microarray gene expression analysis has defined two principal types of DLBCL, named for their similarity to normal B cell stages or activation states: a germinal center B-cell (GCB) type, and an activated B-cell (ABC) type. In ABC-DLBCL, a constitutive high-level activity of the NF-kappaB family of transcription factors has been observed (1) and NF-kappaB target genes are more highly expressed in ABC primary tumors than in GCB tumors. Functional studies have shown a constitutive high-level activity of the IkappaB (inhibitor of kappa-B) kinase (IKK) complex. […] Further analysis of DLBCL primary tumors for NF-kappaB target gene expression imply that although CARD11 is required for constitutive IKK activity in all ABC-DLBCL lines, mutations in CARD11 may be the root cause of IKK activation only in lines or tumors with such mutations. In other words, CARD11 mutations may explain NF-kappaB activation in only 10% of ABC-DLBCL cases. […] This process has been termed 'chronic active BCR signaling' (CABS). The goal of this screen is to find small-molecule inhibitors of the CABS pathway found in ABC-DLBCL lines using a cell-based assay that measures IkappaBalpa stability, which has already been extensively validated in the OCI-Ly3 line (PubChem AID:445; REF: 4). […] The assay uses green (CBG68) and red (CBR) emitting beetle luciferases [Chroma-GloTM developed by Promega Corp.] where the green luciferase is fused to IkappaBalpha and the red luciferase is present in its native state. Both luciferase genes are stably present in the TMD8 human ABC DLBCL cell line, but their expression is under the control of tetracycline-inducible promoters. Following the addition of doxycycline to induce expression of the luciferases, the green luminescence in control cultures rises only slowly because the CBG fusion partner IkappaBalpha is targeted by IKK activity for rapid degradation. In contrast, green luminescence rises rapidly in the presence of proteasome inhibitors or IKK inhibitors. The rise in red luminescence of CBR is not affected by proteasome or IKK inhibitors, and serves as normalization for cell number and nonspecific effects. Compounds were screened as a concentration-titration series that ranged from 46 uM to 3 nM.
NCGC Assay Protocol Summary: Cells were seeded in 1536-well plates at 5000 cells/4uL in IMDM medium containing 0.5% FBS, w/o phenol red, 1% penicillin/streptomycin. Then, 23 nL of compounds or DMSO were delivered to each well using a pin tool. One uL 20ng/ml doxycycline was then dispensed into white solid 1536-well plates and the plates were incubated at 37C/5% C02 in a cell incubator for 4 hrs. Then 4 uL luminescent substrate mix (in-house prepared: 150 mM Tris-Cl, pH 7.6, 3 mM MgCl2, 1% Triton X-100, 5 mM DTT, 0.2 mM CoA, 0.15 mM ATP, 5 mM D-luciferin, final concentrations) was added to each well. The plate was incubated at r.t. for 10-15 min. The plates were measured on a ViewLux plate reader for green luminescence (540/20 nm filter) and red luminescence (618/8 nm filter). The green and red luminescent signals were corrected for red and green luminescence filter overlap using previously determined filter calibration constants (determined using the procedure outlined in the Promega Technical Manual; REF 4). The %Activity was determined from the ratio of corrected green/red luminescent values. MG132 were used as control. […] Red luminescent %Activity was normalized to the difference between red luminesence in basal cells (0%Activity) and zero luminescence (-100% Activity). […]
A general note: qHTS replaces the single test concentration by a dilution series.

The mark [1] stands for this setting: measured here: CBR red luminescence, cell number.

The structures appear in SMILES notation. Some of the results follow. Shown are side measurements of this screen, not its main read-out; they come without a call. Most of these compounds were active or inconclusive in the main read-out, so they are no random draw. Words in brackets tell the shape of the fitted curve; partial curves, single points and poor fits give uncertain potencies.

In general, AC50 refers to the concentration at which the activity in the assay is half-maximal. For `CCOc1ccccc1NC(=O)COC(=O)c1c[nH]c2ccccc12`, under setting [1], the AC50 was 0.411 µM [falling, full curve].
On the same count and under the same terms, the result for `c1ccc(NC2=Nc3ccccc3CS2)cc1` reads 0.112 µM [rising, full curve].
`COCCCNC(=O)c1c(N)n(/N=C/c2cccnc2)c2nc3ccccc3nc12`: the AC50 is, setting by setting: under setting [1], 20.6 µM [falling, partial curve]; (measured here: IkBa-CBG green luminescence) 16.4 µM [rising, partial curve, poor fit].
`Cc1ccc(/C=N/N=C/c2ccc(C)cc2)cc1`: under setting [1], the AC50 was 2.06 µM [rising, partial curve, poor fit].
The same measure, in the same setting: the result for `Cc1cccc(C(=O)Nc2ccc(N3CCC(CCN4CCOCC4)CC3)c(C(=O)O)c2)c1` reads 7.08 µM [rising, partial curve]; that for `S=c1nc(C2CC2)n(-c2ccccc2)[nH]1`, 2.82 µM [falling, full curve, poor fit]; that for `Cc1ccc(O)c(-c2cc(C(=O)Nc3c(C)n(C)n(-c4ccccc4)c3=O)[nH]n2)c1`, 18.4 µM [falling, partial curve, poor fit].
The same measure, in the same setting: the result for `COc1ccc(C(=O)Nc2nc(C)cs2)cc1S(=O)(=O)N1CCCC1` reads 0.891 µM [falling, full curve, poor fit]; that for `CCOC(=O)Cc1[nH]nc2c1C(C1C=CCCC1)C(C#N)=C(N)O2` (centres undefined), 8.91 µM [falling, partial curve].
Same read-out and setting: the result for `N/C(=N\OC(=O)c1ccc(Cl)cc1Cl)c1ccccn1` reads 11.2 µM [falling, partial curve]; that for `CC(=O)Nc1ccc(OCc2nnc(-c3ccc(Cl)cc3)o2)cc1`, 11.2 µM [rising, partial curve, poor fit]; that for `COc1cccc(-c2cc(C(F)(F)F)nc(-n3cc(C)cn3)n2)c1`, 35.5 µM [falling, single point].
Consider `O=c1cc(NCc2ccccc2)nc2ccccn12`, for which the AC50 under setting [1] is 14.1 µM [falling, single point].
Same read-out and setting: the result for `COc1cccc(NC(=O)COc2ccccc2C(N)=O)c1` reads 16.4 µM [falling, partial curve]; that for `Cc1cc(C)c2c(c1)N[C@H](c1cccs1)[C@@H]1CCO[C@H]21`, 0.562 µM [rising, full curve, poor fit].
Take `CN(C)c1ccc(/C=N/NC(=O)c2ccnn2C)cc1`: the AC50 under setting [1] is 1 µM [falling, full curve].
The same measure, in the same setting: the result for `CCN(CC)c1nc2ccccc2c(N)c1-c1ccccc1` reads 35.5 µM [falling, single point].
As to `Cc1cc(=O)[nH]c(N/N=C/c2c[nH]c3ccccc23)n1`, the half-maximal activity concentration (AC50) under setting [1] was 7.08 µM [falling, partial curve].
